In PubChem BioAssay AID540303 (National Center for Advancing Translational Sciences (NCATS), 2011):
The whole screen tested about 330,000 compounds, of which about 1,000 (0.3%) were called active. Inconclusive means that the source gave no clear call. Such entries were picked first, then a sample of the others. The call rests on the fitted dose curve; in most records, active means well fitted inhibition curve with a large enough effect; inconclusive means small, poorly fitted or top-dose-only effect; inactive means no such curve, though single readings can be large or run the other way; tested in mouse RAW 264.7 cells. A potency beside an inconclusive call is a rough fit, not a confirmed value.

experiment: qHTS for Inhibitors of Cell Surface uPA Generation; settings: cell surface uPA generation assay; series mostly up to 38.3 µM; further: nearly all actives have a fitted effect of over 55% in size
Description: The overall objective of this project is to perform a quantitative high throughput screen (qHTS) to identify novel compounds that inhibit the generation of cell surface urokinase activity. The urokinase plasminogen activator (uPA) is one of the two primary endogenous systems that mediate plasminogen activation into plasmin. Members of this system, including uPA and its receptor (uPAR), are overexpressed in several malignant tumors. This system plays a major role in adhesion, migration, invasion and metastasis of cancer cells. Small molecule inhibitors of the uPA system will serve as probes to understand the molecular mechanisms of the uPA cascade and better understanding the microenvironmental circumstances that facilitate the activation of plasminogen by uPA, and finally may provide novel candidate agents for anticancer drug therapy.
[…] […] Upon inhibition of the uPA activation cascade, the subsequent cell surface uPA activity-dependent translocation of LF into the cytoplasm is inhibited. ATP-Lite is used to measure intracellular ATP concentrations, which remain increased if LF entry into the cytoplasm is inhibited. This validation assay was performed using a small set of validation compounds.
NIH Chemical Genomics Center [NCGC]
NIH Molecular Libraries Probe Centers Network [MLPCN]
Assay Submitter (PI): Thomas Bugge, National Institute of Dental and Craniofacial Research, NIH
Cultured RAW 264.7 were dispensed into 1536-well clear bottom, white walled tissue culture plates at a density of 4000 cells/well and were incubated overnight (12-16 h) at 37 C in a 5% CO2 incubator. Serially diluted compounds in 23 nl DMSO were added to cells. […] Compound and reagent-treated plates were incubated for 24 h at 37 C in a 5% CO2 incubator. Perkin Elmer ATPlitetrade mark 1 step (3 ul) was then added to each well. Luminescence was detected using a Perkin Elmer ViewLuxtrade mark plate reader.
1.Dispensing RAW 264.7 cells into 1536-well, white walled tissue culture plates at a density of 4000 cells/well (4 uL).
2.Incubation at 37 C in a 5% CO2 incubator overnight.
3.Serially diluting compounds (1:5 serial dilution; 0.0024 uM to […] final concentration) in 23 nl DMSO.
5.Incubating the compound and reagent-treated plates for 24 hours at 37 C in a 5% CO2 incubator.
6.Adding ATP-Lite (3 ul).
7.Reading plates by ViewLux with an exposure length of 5 seconds.
Potency means the concentration at half of the fitted maximal effect.

| SMILES | Potency |
| --- | --- |
| COc1cc(C(=O)OCC(=O)c2cc(C)n(C)c2C)cc(OC)c1OC | inactive |
| Brc1ccc(-c2csc(-c3c[nH]c4ccccc34)n2)cc1 | inactive |
| CC(C)Oc1ccc(S(=O)(=O)N2CCOCC2)cc1NC(=O)c1cccc(S(=O)(=O)N2CCCC2)c1 | inactive |
| O=C(Nc1ccc2c(c1)CCCN2C(=O)c1cccs1)c1c(F)cccc1Cl | inconclusive: 6.31 µM [inhibitor, single point] |
| COc1cc(Br)cc(C2C3=C(CCCC3=O)N(c3ccc(F)cc3)C3=C2C(=O)CCC3)c1O | inactive |
| COc1ccc(CNC(=O)C(=O)NC2CCC(C)CC2)cc1 (configuration not stated) | inconclusive: 0.316 µM [inhibitor, full curve, poor fit] |
| C#CCOCCOCCOCCNc1nc(N2CCN(C(=O)CCCCCCCCCCNC(=O)[C@@H](CCSC)n3cc(CCO)nn3)CC2)nc(N2CCN(C(=O)CCCCCCCCCCNC(=O)[C@H](CO)n3cc(CCCCCN)nn3)CC2)n1 | inactive |
| Cc1ccc2c(c1)C(c1ccccc1)N(C(=O)c1c(F)cccc1Cl)CC(=O)N2 (configuration not stated) | inconclusive: 3.55 µM [inhibitor, partial curve, poor fit] |
| CCOc1ccc(/C=C(\C#N)C(=O)NCC2CCCO2)cc1OCC (configuration not stated) | inactive |
| Cn1nnnc1Sc1ncnc2scc(-c3ccc(C(F)(F)F)cc3)c12 | inconclusive: 3.16 µM [inhibitor, full curve, poor fit] |
| Cc1ccc(-c2nnc(SCC(=O)Nc3ccccc3F)o2)cc1 | active: 8.91 µM |
| CCn1c(NCc2c[nH]c3ccccc23)nc2ccccc21 | inactive |
| O=c1cc(-c2ccccc2)cc(-c2ccccc2)n1O | inconclusive: 7.94 µM [inhibitor, partial curve, poor fit] |
| Cc1cc2nc(-c3cccnc3SCC(=O)NCc3ccco3)[nH]c2cc1C | inconclusive: 3.55 µM [inhibitor, partial curve] |
| CCNC(=O)c1c(O)c2ccccc2[nH]c1=O | inconclusive: 11.2 µM [inhibitor, single point] |
| CCN(CC)CCn1c(NC(=O)c2ccccc2O)nc2ccccc21 | inconclusive: 14.1 µM [inhibitor, single point] |
| C=CC[C@H](CC(=O)N(CCO)Cc1ccccc1)C(=O)NC[C@@H](OC(=O)[C@@H](CC=C)Cc1ccc(F)cc1)c1ccccc1 | inconclusive: 5.62 µM [inhibitor, partial curve] |
| COc1ccccc1C(=O)NCCC(=O)N1CC(=O)Nc2ccccc21 | inactive |
| COc1ccc(OC)c(C2CC(c3ccccc3)=NN2C(=S)Nc2ccccc2)c1 (configuration not stated) | inconclusive: 5.01 µM [inhibitor, single point] |
| Cc1ccc(NC(=O)C2CCN(S(=O)(=O)c3ccc4c(c3)NC(=O)C(C)S4)CC2)c(Cl)c1 (configuration not stated) | inconclusive: 12.6 µM [inhibitor, single point] |
| Cc1cc(C)cc(NC(=S)N2CCC(c3nc4ccccc4s3)CC2)c1 | inactive |

| SMILES | Potency |
| --- | --- |
| CCC(=O)NC(c1cc(Cl)c2cccnc2c1O)C(C)C (configuration not stated) | inconclusive: 7.08 µM [inhibitor, single point] |
| CCCCCc1cc(=O)oc2c(C(CCN3CCCC3)c3cc(OC)c(OC)c(OC)c3)c(OC)cc(OC)c12 (configuration not stated) | inconclusive: 10 µM [inhibitor, partial curve, poor fit] |
| COCc1ccc(C(=O)N2CCCC(CCC(=O)NCc3ccccc3F)C2)o1 (configuration not stated) | inactive |
| O=C(N/N=C/C1CC=CCC1)c1cc(-c2cccnc2)nc2ccccc12 (configuration not stated) | inactive |
| C#CC(CO)N(CCN(Cc1ccccc1)C(C#C)CO)Cc1ccccc1 (configuration not stated) | inactive |
| O=C(/C=C/c1cccnc1)/C=C/c1cccnc1 | inconclusive: 1.12 µM [inhibitor, partial curve, poor fit] |
| COc1cccc(-c2nc(C(=O)NCC3CCCO3)cc3c2[nH]c2ccccc23)c1 (configuration not stated) | inconclusive: 28.2 µM [inhibitor, single point] |
| O=C1CC(Sc2nnnn2C2CCCCC2)C(=O)N1c1ccccc1 (configuration not stated) | inconclusive: 12.6 µM [inhibitor, single point] |
| Nc1cccc2c1C(=O)N(C(=O)/C=C/c1cccc(Br)c1)C2=O | inactive |
| O=S1(=O)CCOC(CO)CN1Cc1ccc(Cl)c(Cl)c1 (configuration not stated) | inconclusive: 12.6 µM [inhibitor, partial curve, poor fit] |
| COc1cccc(OC)c1OCCNCC1COc2ccccc2O1 (configuration not stated) | inactive |
| CC(C)(C)NC(=O)C(c1ccc(-c2ccccc2)cc1)N(C[C@H]1CC[C@@H]([C@@H]2CC[C@H](CO)O2)O1)C(=O)c1ccc(C(C)(C)C)cc1 (some centres not stated) | inconclusive: 28.2 µM [inhibitor, single point] |
| COc1cccc(/C=N/NC(=O)CNC(=O)C2COc3ccccc3O2)c1O (configuration not stated) | inconclusive: 6.31 µM [inhibitor, single point] |
| O=C(N/N=C/C=C/c1ccccc1[N+](=O)[O-])c1cc(-c2cccnc2)nc2ccccc12 | inconclusive: 2.82 µM [inhibitor, full curve, poor fit] |
| CN(CCCN1CCCCC1)C(=O)c1cc(COc2ccc(F)cc2F)on1 | inactive |
| O=C1/C(=C/c2ccc(F)cc2)SC(=S)N1CC(=O)N1CCCCC1c1cccnc1 (configuration not stated) | inconclusive: 1 µM [inhibitor, partial curve, poor fit] |
| O=C(CCOc1ccccc1)Nc1ccc(Cl)c(S(=O)(=O)N2CCOCC2)c1 | inconclusive: 8.91 µM [inhibitor, partial curve, poor fit] |
| CCC(CO)Oc1cc(NCc2ccc(C(F)(F)F)cc2)c2ncn(C(C)C)c2c1 (configuration not stated) | inconclusive: 10 µM [inhibitor, single point] |
| COc1cccc(-c2csc(NC(=O)C3CC3)n2)c1 | inconclusive: 12.6 µM [inhibitor, single point] |
| COc1ccc(N/N=C(\C#N)C(=N)N2CCCCC2)cc1 | inconclusive: 7.08 µM [inhibitor, single point] |
| C[C@H]1CN=C(Nc2ccccc2)N1CC1CCCCCC1 | inconclusive: 11.2 µM [inhibitor, partial curve, poor fit] |

Some of the entries so far, tab-delimited.
SMILES	Potency
COc1cc(C(=O)OCC(=O)c2cc(C)n(C)c2C)cc(OC)c1OC	inactive
C=CC[C@H](CC(=O)N(CCO)Cc1ccccc1)C(=O)NC[C@@H](OC(=O)[C@@H](CC=C)Cc1ccc(F)cc1)c1ccccc1	inconclusive: 5.62 µM [inhibitor, partial curve]

Two entries from above, set out differently.
SMILES | Potency
O=C(N/N=C/C1CC=CCC1)c1cc(-c2cccnc2)nc2ccccc12 (configuration not stated) | inactive
CC(C)(C)NC(=O)C(c1ccc(-c2ccccc2)cc1)N(C[C@H]1CC[C@@H]([C@@H]2CC[C@H](CO)O2)O1)C(=O)c1ccc(C(C)(C)C)cc1 (some centres not stated) | inconclusive: 28.2 µM [inhibitor, single point]
